The values below come from patent publication US20230288411A1, “POLYPEPTIDE, MULTIMER, SOLID PHASE, MEASUREMENT METHOD FOR TEST SUBSTANCE, AND REAGENT KIT” (SYSMEX CORPORATION, priority 2020, published 2023).

The nature of this data set: Evaluation of influence of D-biotin on TSH measurement system in ELISA method. Conditions: 0, 1, 10 or 100 ng/mL D-biotin added to specimen (TSH calibrator C3); signal at 0 ng/mL taken as 100%; immobilized plate with matching biotin-labeled TSH antibody.

B1: D-tamavidin (trademark) 2: avidin-like protein derived from Pleurotus cornucopiae consisting of D amino acids, 2nd to 141st amino acid sequence of SEQ ID NO: 4 (peptide, listed as Pleurotus cornucopiae)
chain: SDVQSSLTGTWYNELNSKMELTANKDGTLTGKYLSKVGDVYVPYPLSGRYNLQPPAGQGVALGWAVSWENSKIHSATTWSGQFFSESSPVILTQWLLSSSTARGDVWESTLVGNDSFTKTAPTEQQIAHAQLHCRAPRLK
modifications: D-amino acids
For the molecule B1, the “effect of D-biotin addition on TSH ELISA signal” value was “the effect due to the addition of D-biotin was hardly observed”.
